The text below walks through data of paper PMC3662782.

Protein sequences, listed by entry. Tags and fused reporters are not part of them.
UniProt P0A6X3: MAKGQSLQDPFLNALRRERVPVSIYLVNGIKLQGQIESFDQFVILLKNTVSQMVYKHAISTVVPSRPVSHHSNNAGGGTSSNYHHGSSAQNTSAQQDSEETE
UniProt Q9HUM0: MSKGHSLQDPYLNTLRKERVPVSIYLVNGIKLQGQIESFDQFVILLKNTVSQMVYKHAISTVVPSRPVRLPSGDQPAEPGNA

No constants are given. Whether binding was seen depends on the method and setting.

In assay [1] the target is His-Crc (Pseudomonas aeruginosa catabolite repression control protein Crc, N-terminal His6 tag, from plasmid pETM14lic-His6Crc) (Pseudomonas aeruginosa PAO1) (UniProt Q51380). In words: co-purification by Ni-affinity chromatography, then SEC; His-Crc held on Ni resin from E. coli Rosetta (DE3) lysate (50 mM NaH2PO4 pH 8.0, 300 mM NaCl, 10 mM imidazole), then Superdex-75 SEC (50 mM NaH2PO4 pH 8.0, 150 mM NaCl); Hfq looked for by mass spectrometry and western blot; mock control strain without Crc. A general note: Immunoblotting shows a protein as a band on a membrane.

Assay [2] concerns the target His-Crc (Pseudomonas aeruginosa Crc, His-tagged, from plasmid pME9670) (Pseudomonas aeruginosa) (UniProt Q51380). The assay can be described thus: co-purification by Ni-affinity chromatography; His-Crc held on Ni resin from P. aeruginosa PAO1(pME9670) lysate, one-step NAC; eluate on a Coomassie-stained SDS gel.

Consider “Escherichia coli RNA chaperone Hfq (from UniProt P0A6X3 1-102)”, for which the binding result in assay [1] is given as “no binding”.

Regarding “Hfq protein of Pseudomonas aeruginosa (from UniProt Q9HUM0 1-82)”, the binding entry in assay [2] is “no binding”.
